Values joined by “and” are separate entries in the source; they are usually repeats but may differ in a detail not shown here. Equal values may be shown once. Plain letter strings leave the end groups untold.
Experiments:
[1] = general procedure: hybrid (solid and solution phase) peptide synthesis; FmocLeuOResin loaded at 1.02 mmol/g; HBTU/HOBT/DIEA (fragment couplings in solution); conditions: whole synthesis
[2] = general procedure: hybrid (solid and solution phase) peptide synthesis; 2-chlorotrityl chloride resin (super acid sensitive); HBTU/HOBT/DIEA (fragment couplings in solution); conditions: for step yield / final HPLC purity: purification step; for final HPLC purity / crude HPLC purity: 280 nm
[3] = general procedure: hybrid (solid and solution phase) peptide synthesis; FmocTrp(Boc)OR loaded at 0.75 mmol/g; HBTU/HOBT/DIEA (fragment couplings in solution); conditions: whole synthesis

Sequence | crude yield [1] [% yield] | step yield [2] [%] | final HPLC purity [2] [A %] | crude HPLC purity ([2]; whole synthesis) [A %] | crude yield [3] [% yield] | crude HPLC purity ([2]; whole synthesis, run 1) | crude HPLC purity ([2]; whole synthesis, run 2) | crude yield ([2]; whole synthesis, run 1) [%]
EQAQIQQEKNEYEL | 60 | 72 | 95 | 85 |  |  |  | 
QKLDKWASLWEW |  |  |  | 87.9 | 78 |  |  | 
WQEWEQKITALL |  | 81 | 90 |  |  | 87A % and 83 Area % | 84 Area % (A %) | 90
